These are yes or no findings as the source states them, for the method shown. In cells and extracts the contact can be indirect. For some assays here: Tags and fused reporters may be left off the sequences shown.
Key:
[1] = molecular target: T1, FADD (overexpressed, Figure 4C), Q13158; test: co-IP; conditions: remark: other sources report otherwise
T1 chain: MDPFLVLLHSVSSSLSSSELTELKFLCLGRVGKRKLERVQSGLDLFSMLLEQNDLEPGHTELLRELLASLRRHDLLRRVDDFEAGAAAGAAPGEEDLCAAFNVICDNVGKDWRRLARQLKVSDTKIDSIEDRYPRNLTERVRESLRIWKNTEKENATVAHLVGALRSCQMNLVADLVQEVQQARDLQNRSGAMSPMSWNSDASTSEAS

[2] = molecular target: T2, Flag-tagged procaspase-8, Q14790; test: co-IP; conditions: remark: other sources report otherwise
T2 chain: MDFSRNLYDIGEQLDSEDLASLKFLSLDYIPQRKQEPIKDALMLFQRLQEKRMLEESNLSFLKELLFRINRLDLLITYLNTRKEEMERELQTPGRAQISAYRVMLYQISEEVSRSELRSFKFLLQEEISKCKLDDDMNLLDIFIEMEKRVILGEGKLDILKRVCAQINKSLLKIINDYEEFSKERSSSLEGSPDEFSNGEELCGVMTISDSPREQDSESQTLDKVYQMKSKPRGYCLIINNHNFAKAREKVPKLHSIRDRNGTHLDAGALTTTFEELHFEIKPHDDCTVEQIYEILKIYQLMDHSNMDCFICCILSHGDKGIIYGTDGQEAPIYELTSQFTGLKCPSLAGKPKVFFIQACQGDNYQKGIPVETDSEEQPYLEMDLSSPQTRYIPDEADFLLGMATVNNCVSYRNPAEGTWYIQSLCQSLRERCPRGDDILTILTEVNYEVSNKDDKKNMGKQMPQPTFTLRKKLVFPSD

B1: endogenous TRAF2, Q12933 1-501 (protein)
chain: MAAASVTPPGSLELLQPGFSKTLLGTKLEAKYLCSACRNVLRRPFQAQCGHRYCSFCLASILSSGPQNCAACVHEGIYEEGISILESSSAFPDNAARREVESLPAVCPSDGCTWKGTLKEYESCHEGRCPLMLTECPACKGLVRLGEKERHLEHECPERSLSCRHCRAPCCGADVKAHHEVCPKFPLTCDGCGKKKIPREKFQDHVKTCGKCRVPCRFHAIGCLETVEGEKQQEHEVQWLREHLAMLLSSVLEAKPLLGDQSHAGSELLQRCESLEKKTATFENIVCVLNREVERVAMTAEACSRQHRLDQDKIEALSSKVQQLERSIGLKDLAMADLEQKVLEMEASTYDGVFIWKISDFARKRQEAVAGRIPAIFSPAFYTSRYGYKMCLRIYLNGDGTGRGTHLSLFFVVMKGPNDALLRWPFNQKVTLMLLDQNNREHVIDAFRPDVTSSSFQRPVNDMNIASGCPLFCPVSKMEAKNSYVRDDAIFIKAIVDLTGL
- binding [1]: no binding
- binding [2]: no binding
